Test results as given in PMC10182654, “The pattern of histone H3 epigenetic posttranslational modifications is regulated by the VRK1 chromatin kinase” (Epigenetics & Chromatin, 2023).
No constants are given. Whether binding was seen depends on the method and setting. In cells and extracts the contact can be indirect. Some binding calls cover weakened binding; strength is not graded here. Tags and fused reporters may be left off the sequences shown.

Sequences of proteins named here, by UniProt entry; tags and fusion partners are left off.
UniProt Q92831: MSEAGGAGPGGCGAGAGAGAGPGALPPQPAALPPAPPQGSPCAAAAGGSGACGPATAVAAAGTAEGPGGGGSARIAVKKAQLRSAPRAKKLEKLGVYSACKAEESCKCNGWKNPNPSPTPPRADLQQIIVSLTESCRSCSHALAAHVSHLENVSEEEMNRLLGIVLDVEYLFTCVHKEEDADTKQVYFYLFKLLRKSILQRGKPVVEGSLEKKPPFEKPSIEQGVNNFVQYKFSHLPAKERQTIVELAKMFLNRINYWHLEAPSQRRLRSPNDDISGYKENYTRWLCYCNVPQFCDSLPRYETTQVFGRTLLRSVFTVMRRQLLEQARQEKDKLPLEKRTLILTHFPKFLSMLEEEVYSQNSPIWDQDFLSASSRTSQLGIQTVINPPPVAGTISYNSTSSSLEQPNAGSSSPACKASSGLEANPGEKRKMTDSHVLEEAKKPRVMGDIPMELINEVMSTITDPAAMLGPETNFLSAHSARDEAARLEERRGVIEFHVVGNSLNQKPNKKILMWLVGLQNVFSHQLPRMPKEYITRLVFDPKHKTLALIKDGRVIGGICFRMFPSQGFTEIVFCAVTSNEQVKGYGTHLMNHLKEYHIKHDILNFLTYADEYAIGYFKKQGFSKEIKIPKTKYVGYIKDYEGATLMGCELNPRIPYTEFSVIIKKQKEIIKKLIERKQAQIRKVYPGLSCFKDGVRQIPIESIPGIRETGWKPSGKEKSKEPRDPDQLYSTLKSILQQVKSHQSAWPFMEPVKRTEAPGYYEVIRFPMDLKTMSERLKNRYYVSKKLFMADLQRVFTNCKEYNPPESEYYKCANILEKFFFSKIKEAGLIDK
UniProt Q13547: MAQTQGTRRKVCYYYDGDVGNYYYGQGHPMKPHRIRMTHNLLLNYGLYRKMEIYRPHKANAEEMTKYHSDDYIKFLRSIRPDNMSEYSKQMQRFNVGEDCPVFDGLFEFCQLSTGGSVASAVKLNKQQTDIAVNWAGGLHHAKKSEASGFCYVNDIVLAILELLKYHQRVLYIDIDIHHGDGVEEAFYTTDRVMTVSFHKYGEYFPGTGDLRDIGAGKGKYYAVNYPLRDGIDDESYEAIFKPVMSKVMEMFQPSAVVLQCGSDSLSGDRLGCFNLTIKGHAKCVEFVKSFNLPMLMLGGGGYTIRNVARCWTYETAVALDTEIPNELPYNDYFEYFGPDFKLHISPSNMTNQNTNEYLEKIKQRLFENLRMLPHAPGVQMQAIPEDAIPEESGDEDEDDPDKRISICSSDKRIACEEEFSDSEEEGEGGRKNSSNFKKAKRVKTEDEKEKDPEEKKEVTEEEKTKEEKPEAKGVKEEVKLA

T1: VRK1-HA (human) (UniProt Q99986)
T1 sequence: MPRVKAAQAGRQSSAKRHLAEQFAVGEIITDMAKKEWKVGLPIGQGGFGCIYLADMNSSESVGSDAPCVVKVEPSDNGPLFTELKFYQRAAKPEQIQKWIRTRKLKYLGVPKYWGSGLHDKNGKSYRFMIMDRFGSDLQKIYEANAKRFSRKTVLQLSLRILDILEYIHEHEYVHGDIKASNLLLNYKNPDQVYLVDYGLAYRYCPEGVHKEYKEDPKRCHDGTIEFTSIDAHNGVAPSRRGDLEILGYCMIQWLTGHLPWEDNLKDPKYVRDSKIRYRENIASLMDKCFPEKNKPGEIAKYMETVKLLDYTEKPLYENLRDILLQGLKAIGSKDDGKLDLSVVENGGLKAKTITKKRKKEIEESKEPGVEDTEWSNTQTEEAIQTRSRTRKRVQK

T2: endogenous VRK1 (human (endogenous in HEK293T)) (UniProt Q99986)
T2 sequence: T1 sequence

B1: KDM4A (JMJD2A)-HA (enzyme, UniProt O75164 1-1064)
chain: MASESETLNPSARIMTFYPTMEEFRNFSRYIAYIESQGAHRAGLAKVVPPKEWKPRASYDDIDDLVIPAPIQQLVTGQSGLFTQYNIQKKAMTVREFRKIANSDKYCTPRYSEFEELERKYWKNLTFNPPIYGADVNGTLYEKHVDEWNIGRLRTILDLVEKESGITIEGVNTPYLYFGMWKTSFAWHTEDMDLYSINYLHFGEPKSWYSVPPEHGKRLERLAKGFFPGSAQSCEAFLRHKMTLISPLMLKKYGIPFDKVTQEAGEFMITFPYGYHAGFNHGFNCAESTNFATRRWIEYGKQAVLCSCRKDMVKISMDVFVRKFQPERYKLWKAGKDNTVIDHTLPTPEAAEFLKESELPPRAGNEEECPEEDMEGVEDGEEGDLKTSLAKHRIGTKRHRVCLEIPQEVSQSELFPKEDLSSEQYEMTECPAALAPVRPTHSSVRQVEDGLTFPDYSDSTEVKFEELKNVKLEEEDEEEEQAAAALDLSVNPASVGGRLVFSGSKKKSSSSLGSGSSRDSISSDSETSEPLSCRAQGQTGVLTVHSYAKGDGRVTVGEPCTRKKGSAARSFSERELAEVADEYMFSLEENKKSKGRRQPLSKLPRHHPLVLQECVSDDETSEQLTPEEEAEETEAWAKPLSQLWQNRPPNFEAEKEFNETMAQQAPHCAVCMIFQTYHQVEFGGFNQNCGNASDLAPQKQRTKPLIPEMCFTSTGCSTDINLSTPYLEEDGTSILVSCKKCSVRVHASCYGVPPAKASEDWMCSRCSANALEEDCCLCSLRGGALQRANDDRWVHVSCAVAILEARFVNIAERSPVDVSKIPLPRFKLKCIFCKKRRKRTAGCCVQCSHGRCPTAFHVSCAQAAGVMMQPDDWPFVVFITCFRHKIPNLERAKGALQSITAGQKVISKHKNGRFYQCEVVRLTTETFYEVNFDDGSFSDNLYPEDIVSQDCLQFGPPAEGEVVQVRWTDGQVYGAKFVASHPIQMYQVEFEDGSQLVVKRDDVYTLDEELPKRVKSRLSVASDMRFNEIFTEKEVKQEKKRQRVINSRYREDYIEPALYRAIME
B2: KDM3A (JMJD1A)-V5 (enzyme, UniProt Q9Y4C1 1-1321)
chain: MVLTLGESWPVLVGRRFLSLSAADGSDGSHDSWDVERVAEWPWLSGTIRAVSHTDVTKKDLKVCVEFDGESWRKRRWIEVYSLLRRAFLVEHNLVLAERKSPEISERIVQWPAITYKPLLDKAGLGSITSVRFLGDQQRVFLSKDLLKPIQDVNSLRLSLTDNQIVSKEFQALIVKHLDESHLLKGDKNLVGSEVKIYSLDPSTQWFSATVINGNPASKTLQVNCEEIPALKIVDPSLIHVEVVHDNLVTCGNSARIGAVKRKSSENNGTLVSKQAKSCSEASPSMCPVQSVPTTVFKEILLGCTAATPPSKDPRQQSTPQAANSPPNLGAKIPQGCHKQSLPEEISSCLNTKSEALRTKPDVCKAGLLSKSSQIGTGDLKILTEPKGSCTQPKTNTDQENRLESVPQALTGLPKECLPTKASSKAELEIANPPELQKHLEHAPSPSDVSNAPEVKAGVNSDSPNNCSGKKVEPSALACRSQNLKESSVKVDNESCCSRSNNKIQNAPSRKSVLTDPAKLKKLQQSGEAFVQDDSCVNIVAQLPKCRECRLDSLRKDKEQQKDSPVFCRFFHFRRLQFNKHGVLRVEGFLTPNKYDNEAIGLWLPLTKNVVGIDLDTAKYILANIGDHFCQMVISEKEAMSTIEPHRQVAWKRAVKGVREMCDVCDTTIFNLHWVCPRCGFGVCVDCYRMKRKNCQQGAAYKTFSWLKCVKSQIHEPENLMPTQIIPGKALYDVGDIVHSVRAKWGIKANCPCSNRQFKLFSKPASKEDLKQTSLAGEKPTLGAVLQQNPSVLEPAAVGGEAASKPAGSMKPACPASTSPLNWLADLTSGNVNKENKEKQPTMPILKNEIKCLPPLPPLSKSSTVLHTFNSTILTPVSNNNSGFLRNLLNSSTGKTENGLKNTPKILDDIFASLVQNKTTSDLSKRPQGLTIKPSILGFDTPHYWLCDNRLLCLQDPNNKSNWNVFRECWKQGQPVMVSGVHHKLNSELWKPESFRKEFGEQEVDLVNCRTNEIITGATVGDFWDGFEDVPNRLKNEKEPMVLKLKDWPPGEDFRDMMPSRFDDLMANIPLPEYTRRDGKLNLASRLPNYFVRPDLGPKMYNAYGLITPEDRKYGTTNLHLDVSDAANVMVYVGIPKGQCEQEEEVLKTIQDGDSDELTIKRFIEGKEKPGALWHIYAAKDTEKIREFLKKVSEEQGQENPADHDPIHDQSWYLDRSLRKRLHQEYGVQGWAIVQFLGDVVFIPAGAPHQVHNLYSCIKVAEDFVSPEHVKHCFWLTQEFRYLSQTHTNHEDKLQVKNVIYHAVKDAVAMLKASESSFGKP

target: T1, VRK1-HA (human); assay: co-IP; 0.5–1 mg whole-cell extracts of transfected HEK293T cells; specific antibody 6–8 h at 4, then Protein G–Agarose overnight at 4 °C; immunoblot; increasing amounts of transfected plasmid in some panels

binding | Molecule
binds | PCAF-Flag (from UniProt Q92831 1-832) (enzyme)
binds | B1
binds | B2

target: T2, endogenous VRK1 (human (endogenous in HEK293T)); assay: as above

binding | Molecule
binds | HDAC1-Flag (from UniProt Q13547 1-482) (enzyme)
binds | B1
binds | B2
